Results published in article doi:10.1101/661488.
Results are given in words; binding and its absence hold for the method and conditions named. In cells and extracts the contact can be indirect. Binding can be weak; no strength is given.

Molecular target: AMPKα (α catalytic subunit of AMPK) (mouse (endogenous in DRG))
Test: co-IP

| Binder | binding |
| --- | --- |
| PSMD7 (proteasomal protein) (protein, UniProt P26516 1-321) MPELAVQKVVVHPLVLLSVVDHFNRIGKVGNQKRVVGVLLGSWQKKVLDVSNSFAVPFDEDDKDDSVWFLDHDYLENMYGMFKKVNARERIVGWYHTGPKLHKNDIAINELMKRYCPNSVLVIIDVKPKDLGLPTEAYISVEEVHDDGTPTSKTFEHVTSEIGAEEAEEVGVEHLLRDIKDTTVGTLSQRITNQVHGLKGLNSKLLDIRSYLEKVASGKLPINHQIIYQLQDVFNLLPDASLQEFVKAFYLKTNDQMVVVYLASLIRSVVALHNLINNKIANRDAEKKEGQEKEESKKERKDDKEKEKSDAAKKEEKKEKK | binds |
| PSMD13 (proteasomal protein) (protein, UniProt Q9WVJ2 1-376) MKDVPAFLQQSQSSGPGQAAVWHRLEELYTKKLWHQLTLEVLDFVQDPCFAQGDGLIKLYENFISEFEHRVNPLSLVEIILHVVRQMTDPNVALTFLEKTREKVKSSDEAVILCKTAIGALKLNIGDLQATKETIEDVEEMLNNLPGVTSVHSRFYDLSSKYYQTIGNHASYYKDALRFLGCVDIKDLPVSEQQERAFTLGLAGLLGEGVFNFGELLMHPVLESLRDTDRQWLIDTLYAFNSGAVDRFQTLKCAWGQQPDLAANEAQLLRKIQLLCLMEMTFTRPANHRQLTFEEIAKSAKITVNKVELLVMKALSVGLVRGSIDEVDKRVHMTWVQPRVLDLQQIKGMKDRLELWCTDVKSMEMLVEHQAQDILT | binds |
| GPHN (postsynaptic protein) (protein, UniProt Q8BUV3 1-769) MATEGMILTNHDHQIRVGVLTVSDSCFRNLAEDRSGINLKDLVQDPSLLGGTISAYKIVPDEIEEIKETLIDWCDEKELNLILTTGGTGFAPRDVTPEATKEVIEREAPGMALAMLMGSLNVTPLGMLSRPVCGIRGKTLIINLPGSKKGSQECFQFILPALPHAIDLLRDAIVKVKEVHDELEDLPSPPPPLSPPPTTSPHKQTEDKGVQCEEEEEEKKDSGVASTEDSSSSHITAAALAAKIPDSIISRGVQVLPRDTASLSTTPSESPRAQATSRLSTASCPTPKQIRRPDESKGVASRVGSLKARLPSCSSTYSVSEVQSRCSSKENILRASHSAVDITKVARRHRMSPFPLTSMDKAFITVLEMTPVLGTEIINYRDGMGRVLAQDVYAKDNLPPFPASVKDGYAVRAADGPGDRFIIGESQAGEQPTQTVMPGQVMRVTTGAPIPCGADAVVQVEDTELIRESDDGTEELEVRILVQARPGQDIRPIGHDIKRGECVLAKGTHMGPSEIGLLATVGVTEVEVNKFPVVAVMSTGNELLNPEDDLLPGKIRDSNRSTLLATIQEHGYPTINLGIVGDNPDDLLNALNEGISRADVIITSGGVSMGEKDYLKQVLDIDLHAQIHFGRVFMKPGLPTTFATLDIDGVRKIIFALPGNPVSAVVTCNLFVVPALRKMQGILDPRPTIIKARLSCDVKLDPRPEYHRCILTWHHQEPLPWAQSTGNQMSSRLMSMRSANGLLMLPPKTEQYVELHKGEVVDVMVIGRL | binds |
